Source: article PMC11165425
These are yes or no findings as the source states them, for the method shown. In cells and extracts the contact can be indirect. Some binding calls cover weakened binding; strength is not graded here. Tags and fused reporters may be left off the sequences shown.

Amino acid sequences for entries named in this document (tags omitted).
UniProt P61011: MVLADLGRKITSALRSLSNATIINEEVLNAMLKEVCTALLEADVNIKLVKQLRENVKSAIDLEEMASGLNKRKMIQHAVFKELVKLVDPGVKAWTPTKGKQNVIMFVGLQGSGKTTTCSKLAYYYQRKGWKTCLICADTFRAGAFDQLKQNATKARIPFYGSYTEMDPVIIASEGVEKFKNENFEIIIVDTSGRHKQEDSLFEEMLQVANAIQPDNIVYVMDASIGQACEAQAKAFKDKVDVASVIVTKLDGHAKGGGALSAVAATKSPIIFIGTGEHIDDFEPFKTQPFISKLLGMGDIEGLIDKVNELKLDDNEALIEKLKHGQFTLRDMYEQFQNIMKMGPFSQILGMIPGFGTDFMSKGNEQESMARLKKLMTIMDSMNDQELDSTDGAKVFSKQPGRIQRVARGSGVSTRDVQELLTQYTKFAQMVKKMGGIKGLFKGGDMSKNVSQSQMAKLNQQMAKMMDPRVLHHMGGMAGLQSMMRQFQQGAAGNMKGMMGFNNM

How the values were obtained:
GFP-SRP72 (human) [1] = target: T1, GFP-SRP72 (human) (UniProt O76094); assay: co-IP; GFP-Trap beads on total extracts of U2OS Flp-In T-REx cells expressing the GFP-SRP protein for 12 h; RSB-150 buffer with 0.05% NP-40, 2 h at 4°C; Western blot
T1 sequence: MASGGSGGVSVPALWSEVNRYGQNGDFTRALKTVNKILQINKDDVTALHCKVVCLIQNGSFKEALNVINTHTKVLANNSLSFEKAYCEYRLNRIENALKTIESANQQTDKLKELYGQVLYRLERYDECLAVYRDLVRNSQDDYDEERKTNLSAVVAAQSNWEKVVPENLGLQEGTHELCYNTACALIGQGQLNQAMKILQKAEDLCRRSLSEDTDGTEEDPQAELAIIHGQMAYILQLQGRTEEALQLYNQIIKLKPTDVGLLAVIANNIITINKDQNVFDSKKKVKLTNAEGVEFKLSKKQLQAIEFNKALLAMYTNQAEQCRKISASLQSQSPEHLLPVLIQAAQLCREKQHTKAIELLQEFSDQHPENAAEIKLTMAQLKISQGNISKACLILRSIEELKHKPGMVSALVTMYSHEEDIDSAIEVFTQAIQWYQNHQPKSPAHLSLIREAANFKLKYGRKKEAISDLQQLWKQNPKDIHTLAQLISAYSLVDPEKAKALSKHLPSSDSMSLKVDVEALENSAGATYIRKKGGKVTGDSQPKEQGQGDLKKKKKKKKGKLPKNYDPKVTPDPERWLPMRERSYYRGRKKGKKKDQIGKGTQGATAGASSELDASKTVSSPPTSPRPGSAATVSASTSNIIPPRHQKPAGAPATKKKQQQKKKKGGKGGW

GFP-SRP19 (human) [2] = target: T2, GFP-SRP19 (human) (UniProt P09132); assay: as above
T2 sequence: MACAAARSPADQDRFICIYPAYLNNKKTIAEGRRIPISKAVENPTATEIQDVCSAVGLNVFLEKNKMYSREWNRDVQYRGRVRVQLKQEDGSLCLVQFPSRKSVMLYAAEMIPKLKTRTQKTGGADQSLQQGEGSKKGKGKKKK

GFP-SRP72 (human) [3] = target: T1, GFP-SRP72 (human); assay: co-IP; GFP-Trap beads on total extracts of HEK293 Flp-In T-REx cells expressing the GFP-SRP protein for 3 h, without RNase A; RSB-150 buffer (10 mM Tris-HCl pH 7.5, 150 mM NaCl, 2.5 mM MgCl2) with 0.05% NP-40, 2 h at 4°C; Western blot
GFP-SRP19 (human) [4] = target: T2, GFP-SRP19 (human); assay: as above

Measured: binding

SRP54 (from UniProt P61011 1-504)
binds: GFP-SRP72 (human) [1] | GFP-SRP19 (human) [2] | GFP-SRP72 (human) [3] | GFP-SRP19 (human) [4]

B1: SRP68 (protein, UniProt Q9UHB9 1-627)
chain: MAAEKQVPGGGGGGGSGGGGGSGGGGSGGGRGAGGEENKENERPSAGSKANKEFGDSLSLEILQIIKESQQQHGLRHGDFQRYRGYCSRRQRRLRKTLNFKMGNRHKFTGKKVTEELLTDNRYLLLVLMDAERAWSYAMQLKQEANTEPRKRFHLLSRLRKAVKHAEELERLCESNRVDAKTKLEAQAYTAYLSGMLRFEHQEWKAAIEAFNKCKTIYEKLASAFTEEQAVLYNQRVEEISPNIRYCAYNIGDQSAINELMQMRLRSGGTEGLLAEKLEALITQTRAKQAATMSEVEWRGRTVPVKIDKVRIFLLGLADNEAAIVQAESEETKERLFESMLSECRDAIQVVREELKPDQKQRDYILEGEPGKVSNLQYLHSYLTYIKLSTAIKRNENMAKGLQRALLQQQPEDDSKRSPRPQDLIRLYDIILQNLVELLQLPGLEEDKAFQKEIGLKTLVFKAYRCFFIAQSYVLVKKWSEALVLYDRVLKYANEVNSDAGAFKNSLKDLPDVQELITQVRSEKCSLQAAAILDANDAHQTETSSSQVKDNKPLVERFETFCLDPSLVTKQANLVHFPPGFQPIPCKPLFFDLALNHVAFPPLEDKLEQKTKSGLTGYIKGIFGFRS
binds: GFP-SRP72 (human) [1] | GFP-SRP19 (human) [2] | GFP-SRP72 (human) [3] | GFP-SRP19 (human) [4]

B2: SRP72 (protein, UniProt O76094 1-671)
chain: MASGGSGGVSVPALWSEVNRYGQNGDFTRALKTVNKILQINKDDVTALHCKVVCLIQNGSFKEALNVINTHTKVLANNSLSFEKAYCEYRLNRIENALKTIESANQQTDKLKELYGQVLYRLERYDECLAVYRDLVRNSQDDYDEERKTNLSAVVAAQSNWEKVVPENLGLQEGTHELCYNTACALIGQGQLNQAMKILQKAEDLCRRSLSEDTDGTEEDPQAELAIIHGQMAYILQLQGRTEEALQLYNQIIKLKPTDVGLLAVIANNIITINKDQNVFDSKKKVKLTNAEGVEFKLSKKQLQAIEFNKALLAMYTNQAEQCRKISASLQSQSPEHLLPVLIQAAQLCREKQHTKAIELLQEFSDQHPENAAEIKLTMAQLKISQGNISKACLILRSIEELKHKPGMVSALVTMYSHEEDIDSAIEVFTQAIQWYQNHQPKSPAHLSLIREAANFKLKYGRKKEAISDLQQLWKQNPKDIHTLAQLISAYSLVDPEKAKALSKHLPSSDSMSLKVDVEALENSAGATYIRKKGGKVTGDSQPKEQGQGDLKKKKKKKKGKLPKNYDPKVTPDPERWLPMRERSYYRGRKKGKKKDQIGKGTQGATAGASSELDASKTVSSPPTSPRPGSAATVSASTSNIIPPRHQKPAGAPATKKKQQQKKKKGGKGGW
binds: GFP-SRP19 (human) [2] | GFP-SRP19 (human) [4]

B3: SRP19 (protein, UniProt P09132 1-144)
chain: MACAAARSPADQDRFICIYPAYLNNKKTIAEGRRIPISKAVENPTATEIQDVCSAVGLNVFLEKNKMYSREWNRDVQYRGRVRVQLKQEDGSLCLVQFPSRKSVMLYAAEMIPKLKTRTQKTGGADQSLQQGEGSKKGKGKKKK
binds: GFP-SRP72 (human) [1] | GFP-SRP72 (human) [3]
